Measurements reported in PubChem BioAssay AID504467 (National Center for Advancing Translational Sciences (NCATS), 2011).
The campaign covered roughly 330,000 compounds. About 7,700 (2.3%) were called active. Inconclusive means that the source gave no clear call. Such entries were picked first, then a sample of the others. The call rests on the fitted dose curve; in most records, active means well fitted inhibition curve with a large enough effect; inconclusive means small, poorly fitted or top-dose-only effect, or effect the other way; inactive means flat fitted curve, though single readings scatter. A potency beside an inconclusive call is a rough fit, not a confirmed value.

Experiment: qHTS screen for small molecules that inhibit ELG1-dependent DNA repair in human embryonic kidney (HEK293T) cells expressing luciferase-tagged ELG1; further: nearly all actives have a fitted effect of over 55% in size
Details: HEK293T ELG1-luciferase reporter, luminescence, 16 h, DNA damage induced by 5-fluorouridine; activity change, negative = inhibition: at 46.1 µM (top of the series)
Method in brief: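 Quantitative HTS, concentration-response format. 2,000 cells/well co-treated with 5-fluorouridine and compound, 16 hr in 5% CO2 at 37 °C; ONE-Glo luminescence read after 30 min.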
On the % scale 0 is the no-effect control and ±100 the full control effect; potency means the concentration at half of the fitted maximal effect.

Row | Compound | Potency | activity change, negative = inhibition
1 | CCOC(=O)c1sc(-c2ccc(OC)cc2)cc1N | inconclusive: 2.06 µM [activator, partial curve, poor fit] | –
2 | N#CCSc1nnc(COc2cccc3ccccc23)n1-c1cccc(Cl)c1 | inconclusive: 18.4 µM [inhibitor, single point] | –
3 | O=C(Nc1ccccc1C(=O)O)c1ccc(NC(=O)C2CCCO2)cc1 (stereo unspecified) | – | inactive: 9.76%
4 | COc1ccc(S(=O)(=O)Cc2ccc(C(=O)NCCCN(C)c3ccccc3)o2)cc1 | inconclusive: 18.4 µM [inhibitor, single point] | –
5 | COc1ccc(C2=NOC(C(=O)O)C2)cc1 (stereo unspecified) | inconclusive: 32.6 µM [activator, partial curve, poor fit] | –
6 | CCOC(=O)c1cccc(NC(=O)c2cc3sccc3n2C)c1 | inconclusive: 4.61 µM [activator, single point] | –
7 | COc1ccc(S(=O)(=O)N2CCOCC2)cc1C(=O)NC1CCCCC1 | – | inactive: 11.1%
8 | COc1cc2cnc(-c3ccccc3)c(-c3cccc(C(F)(F)F)c3)c2cc1OC | active: 13 µM | –
9 | Cc1ccc(C(=O)C2=C(O)C(=O)N(Cc3cccnc3)C2c2ccc(N(C)C)cc2)o1 (stereo unspecified) | – | inactive: -10.1%
10 | CCCCNC(=O)c1cc2c(=O)n3cccc(C)c3nc2n(CCN2CCOCC2)c1=N | – | inactive: 2.39%
11 | COc1ccc2[nH]c3ccc(OC)cc3c2c1 | inconclusive: 10.3 µM [activator, partial curve] | –
12 | CCOC(=O)Cc1csc(N/N=C/c2ccc(C(F)(F)F)cc2)n1 | inconclusive: 9.2 µM [activator, partial curve] | –
13 | CCN(C(=O)CSc1nnc(C2CC2)n1-c1ccccc1)C1CCS(=O)(=O)C1 (stereo unspecified) | – | inactive: 19%
14 | Cc1ccc(-c2noc(C3CCCCC3)n2)cc1 | inconclusive: 16.4 µM [activator, partial curve] | –
15 | O=C(/C=C/c1cccc([N+](=O)[O-])c1)NC(=S)Nc1cccc(NC(=O)c2ccccc2Cl)c1 | inconclusive: 20.6 µM [inhibitor, single point] | –
16 | CC1(C)CC(=O)c2cc(OCC(=O)NCC3CCCO3)ccc2O1 (stereo unspecified) | inconclusive: 18.4 µM [activator, partial curve, poor fit] | –
17 | COc1ccc(/C=C2\SC(=S)N(CCCC(=O)N3CCOCC3)C2=O)cc1OC | inconclusive: 29.1 µM [inhibitor, single point] | –
18 | Cc1cccc(C)c1NC(=O)CN(C)CC(=O)c1c(N)n(Cc2ccccc2)c(=O)n(C)c1=O | inconclusive: 11.6 µM [inhibitor, partial curve] | –
19 | Nc1nonc1-n1nnc(C(=O)N/N=C/c2ccc(OCc3ccccc3)cc2)c1CNc1ccccc1 | – | inactive: 25%
20 | CC(=O)c1cccc(NC(=O)COC(=O)CCC(=O)c2cccs2)c1 | – | inactive: 2.66%
21 | CS(=O)(=O)N(CC(=O)N1CCN(Cc2ccccc2)CC1)c1cccc(Cl)c1 | inconclusive: 18.3 µM [inhibitor, single point] | –
22 | O=C(Nc1ccon1)c1cc2c(s1)CCCC2 | inconclusive: 3.66 µM [activator, full curve] | –

Row | Compound | Potency | activity change, negative = inhibition
23 | O=C(CSC1=NS(=O)(=O)c2ccccc2N1)N1CCCCC1 | inconclusive: 0.517 µM [inhibitor, partial curve, poor fit] | –
24 | COc1ccc(Nc2nnc(SCC(=O)/C=C3/N(C)c4ccccc4C3(C)C)s2)cc1 | active: 25.9 µM | –
25 | Cc1ccc(C(=O)Nc2ccc(S(=O)(=O)NC3=NCCCCC3)cc2)c(C)c1 | – | inactive: 19.7%
26 | O=C(/C=C/c1ccccc1)c1ccc(NC2=NCCCS2)cc1 | inconclusive: 16.4 µM [activator, partial curve] | –
27 | O=C(NCc1ccco1)c1cnn2c(C(F)F)cc(-c3ccccc3)nc12 | inconclusive: 4.11 µM [inhibitor, single point] | –
28 | COC(=O)c1ccc2[nH]c(C(C)(C)O)c(C)c2c1 | inconclusive: 10.3 µM [activator, partial curve] | –
29 | Cc1ccn(CCNC(=O)C2CCC(=O)N(Cc3ccc(Cl)cc3)C2)n1 (stereo unspecified) | – | inactive: 20%
30 | COc1cc([N+](=O)[O-])cc(/C=N/NC(=O)Cn2cncn2)c1O | inconclusive: 25.9 µM [inhibitor, single point] | –
31 | COC(=O)C(C)Oc1ccc2cc(-c3ccccc3)c(=O)oc2c1 (stereo unspecified) | inconclusive: 25.9 µM [activator, single point] | –
32 | CCOC(=O)c1ccc(CC2S/C(=C(\C#N)C(C)=O)NC2=O)cc1 (stereo unspecified) | inconclusive: 23.1 µM [activator, single point] | –
33 | COc1cc2c(cc1OC)CN(CC(=O)Nc1ccc(Cl)c(S(=O)(=O)N(C)C)c1)CC2 | inconclusive: 16.4 µM [inhibitor, single point] | –
34 | C=CCN1/C(=C2/SC(=S)N(C)C2=O)Sc2ccccc21 | – | inactive: 9.32%
35 | O=C(NNC(=S)Nc1ccc(F)cc1)C1[C@H]2CCCC[C@@H]12 (stereo partly specified) | inconclusive: 18.3 µM [activator, partial curve, poor fit] | –
36 | COc1ccc(NC(=O)CN(C)C(=O)c2oc3c(ccc4ccccc43)c2C)cc1 | inconclusive: 23.1 µM [inhibitor, single point] | –
37 | Cc1c(Cl)cnc(NC(=O)COC(=O)C2CC3CCCC(C2)C3=O)c1Cl (stereo unspecified) | inconclusive: 35.5 µM [activator, partial curve, poor fit] | –
38 | Cc1ccc(S(=O)(=O)Nc2cccc3c2O[C@H](CN(C)Cc2ccccc2)[C@@H](C)CN([C@H](C)CO)C3=O)cc1 | inconclusive: 20.6 µM [activator, partial curve, poor fit] | –
39 | C=CCn1nc2ccccc2c1OC | inconclusive: 28.2 µM [activator, single point] | –
40 | CCOC(=O)c1c(C)[nH]c(C(=O)OCC(=O)Nc2sccc2C(N)=O)c1C | inconclusive: 11.6 µM [inhibitor, single point] | –
41 | CSc1ccccc1OCc1cc(C(=O)NC2CCOC2)no1 (stereo unspecified) | inconclusive: 20.6 µM [activator, single point] | –
42 | C[C@H](CO)N1C[C@H](C)[C@@H](CN(C)C(=O)NC2CCCCC2)Oc2c(NC(=O)CCC(F)(F)F)cccc2C1=O | – | inactive: -6.46%
43 | CC(C)n1c(SCC(=O)Nc2ccccc2N2CCCCC2)nc2c1c(=O)n(C)c(=O)n2C | inconclusive: 29.1 µM [inhibitor, single point] | –
44 | COc1cccc2cc(CC(=O)c3ccc(C)c(C)c3)c(=O)oc12 | inconclusive: 18.3 µM [activator, single point] | –

Whole records from above. Order of values: Potency | activity change, negative = inhibition
COc1cc([N+](=O)[O-])cc(/C=N/NC(=O)Cn2cncn2)c1O as listed: inconclusive: 25.9 µM [inhibitor, single point] | –
Cc1ccc(C(=O)Nc2ccc(S(=O)(=O)NC3=NCCCCC3)cc2)c(C)c1 as listed: – | inactive: 19.7%

Following part.

Row | Compound | Potency | activity change, negative = inhibition
45 | CC(=O)N1CCN(Cc2nc3cc(NC(=O)NC4CCCCC4)ccc3n2C)CC1 | inconclusive: 25.9 µM [activator, single point] | –
46 | CC(C)(C)c1ccc(C2C(C(=O)c3ccco3)=C(O)C(=O)N2CC2CCCO2)cc1 (stereo unspecified) | – | inactive: -1.02%
47 | O=C(Oc1coc(CSc2ncccn2)cc1=O)c1ccc(Br)o1 | inconclusive: 32.6 µM [inhibitor, partial curve, poor fit] | –
48 | Cc1ccc2oc(C(=O)Nc3ccc(S(=O)(=O)Nc4ncccn4)cc3)c(C)c2c1 | – | inactive: 11.8%
49 | COc1ccc(-c2cc(C(=O)Nc3ccc(C(N)=O)cc3)c3ccccc3n2)cc1 | inconclusive: 3.26 µM [activator, partial curve] | –
50 | CNC(=S)N/N=C/c1cn(Cc2c(F)cccc2Cl)c2ccccc12 | inconclusive: 29.1 µM [inhibitor, single point] | –
51 | O=C(c1ccccc1Cl)N1N=C(c2ccc(Br)cc2)CC1c1nc2ccccc2[nH]1 (stereo unspecified) | inconclusive: 29.1 µM [inhibitor, single point] | –
52 | CCOc1ccc(N(Cc2nnc3n2CCCCC3)C(=O)Nc2cccc(C)c2)cc1 | inconclusive: 29.1 µM [activator, single point] | –
53 | O=C(Cc1cccs1)NCCN1CCOCC1 | inconclusive: 18.4 µM [activator, partial curve, poor fit] | –
54 | COc1ccc(Cl)cc1C(=O)NNC(=O)c1[nH]c(C)c(C(C)=O)c1C | inconclusive: 32.6 µM [inhibitor, single point] | –
55 | C=CCn1c(SCC(=O)NC2CC2)nc2ccccc2c1=O | inconclusive: 11.2 µM [activator, partial curve] | –
56 | Cc1ccc(/C=C2\SC(=S)N(CCCC(=O)N3CCOCC3)C2=O)cc1 | active: 13 µM | –
57 | Cc1ccc(Cl)cc1N1CCN(C(=O)C2CCN(c3nnc(-n4cccc4)s3)CC2)CC1 | active: 8.2 µM | –
58 | O=C(CSc1nnc(Cc2csc(Nc3cccc(Cl)c3)n2)o1)N1CCc2ccccc21 | inconclusive: 29.1 µM [inhibitor, single point] | –
59 | CC(C)[C@H](NS(=O)(=O)c1ccc(Cl)cc1)C(=O)OCC(=O)c1c(N)n(C)c(=O)n(C)c1=O | inconclusive: 20.6 µM [inhibitor, single point] | –
60 | COc1ccc(-c2nn(-c3ccccc3)cc2C(=O)NC(=S)NNC(=O)c2ccncc2)cc1 | inconclusive: 2.91 µM [inhibitor, full curve] | –
61 | Cc1ccc(C(=O)NC(=S)Nc2ccc(N3CCOCC3)cc2)cc1C | active: 10.3 µM | –
62 | CC(C)(C)n1nc(-c2ccc(Cl)cc2)c2c(N)ncnc21 | – | inactive: 11.2%
63 | COc1ccc(-c2cc3c(=O)n(CC(=O)N4CCN(C)CC4)ncn3n2)cc1 | inconclusive: 4.61 µM [activator, full curve] | –
64 | CN(C)c1ccc(N=Nc2ccccc2C(=O)OCC(=O)NC2CCCC2)cc1 | inconclusive: 8.2 µM [activator, partial curve] | –
65 | C#CC(C)(C)NC(=O)c1ccc(-c2ccccc2F)cc1 | inconclusive: 16.4 µM [activator, partial curve] | –
66 | CCC(C(=O)OCc1csc(CC(=O)Nc2ccccc2C)n1)c1ccccc1 (stereo unspecified) | – | inactive: -19.2%

In the list so far, these have a Cl atom.
Row | Compound | Potency | activity change, negative = inhibition
2 | N#CCSc1nnc(COc2cccc3ccccc23)n1-c1cccc(Cl)c1 | inconclusive: 18.4 µM [inhibitor, single point] | –
15 | O=C(/C=C/c1cccc([N+](=O)[O-])c1)NC(=S)Nc1cccc(NC(=O)c2ccccc2Cl)c1 | inconclusive: 20.6 µM [inhibitor, single point] | –
21 | CS(=O)(=O)N(CC(=O)N1CCN(Cc2ccccc2)CC1)c1cccc(Cl)c1 | inconclusive: 18.3 µM [inhibitor, single point] | –
29 | Cc1ccn(CCNC(=O)C2CCC(=O)N(Cc3ccc(Cl)cc3)C2)n1 (stereo unspecified) | – | inactive: 20%
33 | COc1cc2c(cc1OC)CN(CC(=O)Nc1ccc(Cl)c(S(=O)(=O)N(C)C)c1)CC2 | inconclusive: 16.4 µM [inhibitor, single point] | –
37 | Cc1c(Cl)cnc(NC(=O)COC(=O)C2CC3CCCC(C2)C3=O)c1Cl (stereo unspecified) | inconclusive: 35.5 µM [activator, partial curve, poor fit] | –
50 | CNC(=S)N/N=C/c1cn(Cc2c(F)cccc2Cl)c2ccccc12 | inconclusive: 29.1 µM [inhibitor, single point] | –
51 | O=C(c1ccccc1Cl)N1N=C(c2ccc(Br)cc2)CC1c1nc2ccccc2[nH]1 (stereo unspecified) | inconclusive: 29.1 µM [inhibitor, single point] | –
54 | COc1ccc(Cl)cc1C(=O)NNC(=O)c1[nH]c(C)c(C(C)=O)c1C | inconclusive: 32.6 µM [inhibitor, single point] | –
57 | Cc1ccc(Cl)cc1N1CCN(C(=O)C2CCN(c3nnc(-n4cccc4)s3)CC2)CC1 | active: 8.2 µM | –
58 | O=C(CSc1nnc(Cc2csc(Nc3cccc(Cl)c3)n2)o1)N1CCc2ccccc21 | inconclusive: 29.1 µM [inhibitor, single point] | –
59 | CC(C)[C@H](NS(=O)(=O)c1ccc(Cl)cc1)C(=O)OCC(=O)c1c(N)n(C)c(=O)n(C)c1=O | inconclusive: 20.6 µM [inhibitor, single point] | –
62 | CC(C)(C)n1nc(-c2ccc(Cl)cc2)c2c(N)ncnc21 | – | inactive: 11.2%
